PubChem BioAssay AID743454, Peter MacCallum Cancer Centre – 2014
Shown is one part, drawn at random, of about 18,000 deposited reagents. In the full data, 450 (2.5%) are marked active. 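Single biological run; no consistent viability z cut-off exists, so the class columns, not z-scores, define the calls.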 Reagent sequences are not shown.

Test: 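Genes whose loss kills vorinostat-resistant colon cancer cells under vorinostat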 (primary screen)
Cell system: human HCT116-VR colon cancer cells, selected for vorinostat resistance
Knock-down reagent: siRNA pool against human genes, 40 nM siRNA pool
Duration: vorinostat for 24 h, read-out about 72 h after transfection
Challenge: vorinostat at 2.5 µM final
Detection: 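Cell viability by CellTiter-Fluor and caspase 3/7 activity by luminescence, each scaled to mock wells per plate, duplicates averaged, then robust z-scored over all plates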
Scale: viability robust z-score: higher = more viable cells than screen typical; caspase robust z-score: higher = more caspase 3/7 activity than screen typical
Call rule: 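Hits are knock-downs in viability class RV1/RV2 or caspase class CA1/CA2, excluding ones that killed cells in the no-drug cell-count arm; hits then retested with single siRNAs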

no.	gene	viability hit class	caspase hit class	viability robust z-score	caspase robust z-score	Call
1	SLC45A2	no change	no change	0.4	-0.42	inactive
2	RPGRIP1 (RPGR interacting protein 1)	no change	no change	-0.82	1.88	inactive
3	ITGB5 (integrin subunit beta 5)	no change	no change	0.38	-0.39	inactive
4	BCL9 (BCL9 transcription coactivator)	no change	no change	-0.4	2.01	inactive
5	UBALD2 (UBA like domain containing 2)	no change	no change	0.46	-0.3	inactive
6	ZNF256 (zinc finger protein 256)	no change	no change	0.27	-0.88	inactive
7	TMEM204 (transmembrane protein 204)	no change	no change	1.51	-0.5	inactive
8	CHAMP1 (chromosome alignment maintaining phosphoprotein 1)	no change	no change	0.3	-0.48	inactive
9	RHPN1 (rhophilin Rho GTPase binding protein 1)	no change	no change	1.14	-0.98	inactive
10	PPCDC (phosphopantothenoylcysteine decarboxylase)	no change	no change	0.02	0.05	inactive
11	GTF3C4 (general transcription factor IIIC subunit 4)	no change	no change	0.76	2.96	inactive
12	PEX2 (peroxisomal biogenesis factor 2)	no change	no change	-0.9	1.47	inactive
13	AMHR2 (anti-Mullerian hormone receptor type 2)	no change	no change	0.02	0.44	inactive
14	TRIM3 (tripartite motif containing 3)	no change	no change	-1.54	4.18	inactive
15	DTNBP1 (dystrobrevin binding protein 1)	no change	no change	-0.56	-0.2	inactive
16	DIPK1C (divergent protein kinase domain 1C)	no change	no change	-0.6	-0.57	inactive

3 entries from above, showing only “caspase robust z-score”:
TMEM204 (transmembrane protein 204): -0.5
CHAMP1 (chromosome alignment maintaining phosphoprotein 1): -0.48
RHPN1 (rhophilin Rho GTPase binding protein 1): -0.98

Further entries follow:
no.	gene	viability hit class	caspase hit class	viability robust z-score	caspase robust z-score	Call
17	GPR183 (G protein-coupled receptor 183)	no change	no change	1.31	-0.02	inactive
18	MKRN1 (makorin ring finger protein 1)	no change	no change	0.73	-0.52	inactive
19	HNRNPA2B1 (heterogeneous nuclear ribonucleoprotein A2/B1)	no change	no change	-1.43	-0.89	inactive
20	MMP3 (matrix metallopeptidase 3)	no change	no change	0.32	0.08	inactive
21	RAD51AP1 (RAD51 associated protein 1)	no change	no change	-0.82	1.1	inactive
22	CD38 (CD38 molecule)	no change	no change	0	0.32	inactive
23	ASB4 (ankyrin repeat and SOCS box containing 4)	no change	no change	-0.1	-0.9	inactive
24	MTFP1 (mitochondrial fission process 1)	no change	no change	0.8	-0.64	inactive
25	APBA2 (amyloid beta precursor protein binding family A member 2)	no change	no change	1.34	-0.87	inactive
26	GPR55 (G protein-coupled receptor 55)	no change	no change	0.3	-0.78	inactive
27	BEX5 (brain expressed X-linked 5)	no change	no change	-1.93	2.01	inactive
28	CRACDL (CRACD like)	no change	no change	-0.34	-0.46	inactive
29	ZNF217 (zinc finger protein 217)	no change	no change	0.15	1.96	inactive
30	NAA60 (N-alpha-acetyltransferase 60, NatF catalytic subunit)	no change	no change	-0.2	3.49	inactive
31	TAF9B (TATA-box binding protein associated factor 9b)	no change	no change	-0.66	2.01	inactive
32	NR0B1 (nuclear receptor subfamily 0 group B member 1)	no change	no change	0.66	-0.93	inactive
33	USP22 (ubiquitin specific peptidase 22)	no change	no change	0.11	-1.08	inactive
34	MIER1 (MIER1 transcriptional regulator)	no change	no change	-0.73	0.16	inactive
35	STARD10 (StAR related lipid transfer domain containing 10)	no change	no change	-1.14	1.27	inactive
36	SYNCRIP (synaptotagmin binding cytoplasmic RNA interacting protein)	no change	no change	-0.93	0.72	inactive
37	STX10 (syntaxin 10)	no change	no change	0.92	0.96	inactive
38	TMEM14B (transmembrane protein 14B)	no change	no change	-1.36	3.63	inactive
39	ASL (argininosuccinate lyase)	no change	no change	1.42	-0.48	inactive
